Experimental data as given in article PMC5206711.
These are yes or no findings as the source states them, for the method shown. Binding seen in cells or lysates may run through a third protein. Some binding calls cover weakened binding; strength is not graded here.

Chains of the proteins cited; added tags and fusions are not shown. Lines headed by an entry give the natural chain unless they say otherwise; changes in a name come on top. A line that says so, or that is headed by a name, gives the form on record, which may keep a tag or linker.
TDRD3 (co-IP with MCL-1, Supplementary Figure S4A) (Q9H7E2, form named): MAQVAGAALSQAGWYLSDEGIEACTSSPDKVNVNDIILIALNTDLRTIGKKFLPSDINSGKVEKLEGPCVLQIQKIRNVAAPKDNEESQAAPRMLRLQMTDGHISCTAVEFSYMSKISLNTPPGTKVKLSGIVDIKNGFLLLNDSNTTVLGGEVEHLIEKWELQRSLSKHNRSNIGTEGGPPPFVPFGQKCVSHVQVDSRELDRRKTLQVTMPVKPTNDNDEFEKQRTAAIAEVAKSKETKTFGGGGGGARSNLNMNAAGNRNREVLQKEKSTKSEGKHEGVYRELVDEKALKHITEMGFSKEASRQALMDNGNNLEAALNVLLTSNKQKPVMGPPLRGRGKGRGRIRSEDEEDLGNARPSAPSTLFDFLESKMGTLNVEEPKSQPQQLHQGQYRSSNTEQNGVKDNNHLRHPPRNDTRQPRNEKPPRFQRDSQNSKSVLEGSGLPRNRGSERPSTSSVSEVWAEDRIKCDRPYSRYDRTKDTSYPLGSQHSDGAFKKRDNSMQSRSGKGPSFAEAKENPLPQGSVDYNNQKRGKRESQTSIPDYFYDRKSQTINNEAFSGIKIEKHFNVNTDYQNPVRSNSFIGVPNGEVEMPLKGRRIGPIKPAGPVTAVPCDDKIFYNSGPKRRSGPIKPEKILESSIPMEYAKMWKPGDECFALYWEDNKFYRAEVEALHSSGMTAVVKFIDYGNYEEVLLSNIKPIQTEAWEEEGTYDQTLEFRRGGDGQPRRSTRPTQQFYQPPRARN
UniProt Q07820: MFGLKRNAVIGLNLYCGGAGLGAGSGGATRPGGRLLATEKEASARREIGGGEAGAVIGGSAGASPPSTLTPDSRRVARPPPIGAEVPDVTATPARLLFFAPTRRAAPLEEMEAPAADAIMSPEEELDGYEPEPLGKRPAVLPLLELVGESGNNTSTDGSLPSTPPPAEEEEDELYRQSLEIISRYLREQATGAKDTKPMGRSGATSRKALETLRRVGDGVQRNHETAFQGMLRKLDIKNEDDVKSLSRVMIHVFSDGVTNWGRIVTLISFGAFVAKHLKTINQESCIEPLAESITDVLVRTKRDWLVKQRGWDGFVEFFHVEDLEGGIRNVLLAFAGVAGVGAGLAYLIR

Target: TDRD3 (co-IP with MCL-1, Supplementary Figure S4A) (UniProt Q9H7E2)
Assay: co-IP; from cells; Supplementary Figure S4A, details not shown

binding: binds
Substance: myeloid cell leukemia protein 1 (MCL-1) (from UniProt Q07820 1-350)
